Drawing on PMC7283227, this text covers binding for two substances.

Chains of the proteins cited; added tags and fusions are not shown. Residues count along the entry.
UniProt P02751, residues 32-2477: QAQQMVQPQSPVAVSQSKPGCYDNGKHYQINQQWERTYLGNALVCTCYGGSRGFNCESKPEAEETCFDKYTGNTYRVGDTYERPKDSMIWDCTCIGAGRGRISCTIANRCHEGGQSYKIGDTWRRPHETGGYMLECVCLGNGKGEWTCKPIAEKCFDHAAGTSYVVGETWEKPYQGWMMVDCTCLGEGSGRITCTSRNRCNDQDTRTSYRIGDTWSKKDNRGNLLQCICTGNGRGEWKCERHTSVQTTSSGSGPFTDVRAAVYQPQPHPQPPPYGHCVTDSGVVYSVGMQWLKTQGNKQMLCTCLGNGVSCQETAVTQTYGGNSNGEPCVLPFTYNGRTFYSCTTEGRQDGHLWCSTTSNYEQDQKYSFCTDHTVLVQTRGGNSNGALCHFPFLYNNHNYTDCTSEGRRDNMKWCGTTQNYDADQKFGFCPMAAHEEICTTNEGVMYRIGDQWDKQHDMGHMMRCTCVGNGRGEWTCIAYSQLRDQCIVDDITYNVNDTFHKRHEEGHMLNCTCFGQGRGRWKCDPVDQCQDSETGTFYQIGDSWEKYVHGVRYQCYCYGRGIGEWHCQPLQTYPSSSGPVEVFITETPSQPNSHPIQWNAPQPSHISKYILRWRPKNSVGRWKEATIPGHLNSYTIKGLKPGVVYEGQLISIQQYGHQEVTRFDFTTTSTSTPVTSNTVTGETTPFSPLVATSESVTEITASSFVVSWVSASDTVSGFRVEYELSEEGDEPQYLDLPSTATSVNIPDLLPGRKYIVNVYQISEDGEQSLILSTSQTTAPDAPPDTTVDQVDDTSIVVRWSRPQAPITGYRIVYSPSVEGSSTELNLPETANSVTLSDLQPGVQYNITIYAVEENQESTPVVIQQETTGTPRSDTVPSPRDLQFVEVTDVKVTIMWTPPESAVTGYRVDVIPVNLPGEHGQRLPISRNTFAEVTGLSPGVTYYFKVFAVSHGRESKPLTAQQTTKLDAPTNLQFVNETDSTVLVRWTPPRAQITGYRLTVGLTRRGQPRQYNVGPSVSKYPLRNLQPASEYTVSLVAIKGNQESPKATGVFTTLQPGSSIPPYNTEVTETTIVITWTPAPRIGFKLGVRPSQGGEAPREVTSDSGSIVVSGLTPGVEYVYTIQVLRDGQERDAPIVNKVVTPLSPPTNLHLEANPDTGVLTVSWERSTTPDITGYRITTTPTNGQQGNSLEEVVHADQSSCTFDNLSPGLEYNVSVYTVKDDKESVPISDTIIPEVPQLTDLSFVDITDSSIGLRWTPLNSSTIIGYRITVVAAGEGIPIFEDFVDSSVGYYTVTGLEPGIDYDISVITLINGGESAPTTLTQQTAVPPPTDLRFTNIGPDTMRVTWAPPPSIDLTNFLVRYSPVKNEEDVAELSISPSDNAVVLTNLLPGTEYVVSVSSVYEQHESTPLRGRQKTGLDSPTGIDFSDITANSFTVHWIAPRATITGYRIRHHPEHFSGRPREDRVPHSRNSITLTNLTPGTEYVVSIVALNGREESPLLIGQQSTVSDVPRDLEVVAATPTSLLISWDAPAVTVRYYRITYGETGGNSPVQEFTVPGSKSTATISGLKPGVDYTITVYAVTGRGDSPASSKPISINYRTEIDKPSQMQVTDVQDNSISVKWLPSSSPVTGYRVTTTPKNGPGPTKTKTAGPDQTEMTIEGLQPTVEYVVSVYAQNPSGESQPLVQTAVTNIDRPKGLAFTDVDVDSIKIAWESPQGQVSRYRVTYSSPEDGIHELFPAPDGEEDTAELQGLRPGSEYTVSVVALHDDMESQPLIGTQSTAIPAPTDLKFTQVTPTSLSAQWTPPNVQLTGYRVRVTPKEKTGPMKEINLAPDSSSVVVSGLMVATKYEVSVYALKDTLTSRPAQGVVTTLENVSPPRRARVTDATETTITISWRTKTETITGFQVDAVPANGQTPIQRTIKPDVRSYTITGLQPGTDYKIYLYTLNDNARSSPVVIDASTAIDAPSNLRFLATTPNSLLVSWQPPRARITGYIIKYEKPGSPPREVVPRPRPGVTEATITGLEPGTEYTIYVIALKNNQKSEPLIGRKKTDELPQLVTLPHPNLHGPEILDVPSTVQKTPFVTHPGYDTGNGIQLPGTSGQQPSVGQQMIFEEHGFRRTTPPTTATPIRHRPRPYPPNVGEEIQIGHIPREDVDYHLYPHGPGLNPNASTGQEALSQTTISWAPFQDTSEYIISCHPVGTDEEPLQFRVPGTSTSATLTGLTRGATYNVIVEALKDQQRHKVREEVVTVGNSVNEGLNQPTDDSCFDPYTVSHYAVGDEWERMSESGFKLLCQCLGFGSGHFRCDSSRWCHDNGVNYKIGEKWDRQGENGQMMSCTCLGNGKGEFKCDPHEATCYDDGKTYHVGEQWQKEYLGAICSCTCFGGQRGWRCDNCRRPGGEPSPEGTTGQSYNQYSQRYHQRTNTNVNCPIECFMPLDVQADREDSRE
UniProt P24821, residues 23-2201: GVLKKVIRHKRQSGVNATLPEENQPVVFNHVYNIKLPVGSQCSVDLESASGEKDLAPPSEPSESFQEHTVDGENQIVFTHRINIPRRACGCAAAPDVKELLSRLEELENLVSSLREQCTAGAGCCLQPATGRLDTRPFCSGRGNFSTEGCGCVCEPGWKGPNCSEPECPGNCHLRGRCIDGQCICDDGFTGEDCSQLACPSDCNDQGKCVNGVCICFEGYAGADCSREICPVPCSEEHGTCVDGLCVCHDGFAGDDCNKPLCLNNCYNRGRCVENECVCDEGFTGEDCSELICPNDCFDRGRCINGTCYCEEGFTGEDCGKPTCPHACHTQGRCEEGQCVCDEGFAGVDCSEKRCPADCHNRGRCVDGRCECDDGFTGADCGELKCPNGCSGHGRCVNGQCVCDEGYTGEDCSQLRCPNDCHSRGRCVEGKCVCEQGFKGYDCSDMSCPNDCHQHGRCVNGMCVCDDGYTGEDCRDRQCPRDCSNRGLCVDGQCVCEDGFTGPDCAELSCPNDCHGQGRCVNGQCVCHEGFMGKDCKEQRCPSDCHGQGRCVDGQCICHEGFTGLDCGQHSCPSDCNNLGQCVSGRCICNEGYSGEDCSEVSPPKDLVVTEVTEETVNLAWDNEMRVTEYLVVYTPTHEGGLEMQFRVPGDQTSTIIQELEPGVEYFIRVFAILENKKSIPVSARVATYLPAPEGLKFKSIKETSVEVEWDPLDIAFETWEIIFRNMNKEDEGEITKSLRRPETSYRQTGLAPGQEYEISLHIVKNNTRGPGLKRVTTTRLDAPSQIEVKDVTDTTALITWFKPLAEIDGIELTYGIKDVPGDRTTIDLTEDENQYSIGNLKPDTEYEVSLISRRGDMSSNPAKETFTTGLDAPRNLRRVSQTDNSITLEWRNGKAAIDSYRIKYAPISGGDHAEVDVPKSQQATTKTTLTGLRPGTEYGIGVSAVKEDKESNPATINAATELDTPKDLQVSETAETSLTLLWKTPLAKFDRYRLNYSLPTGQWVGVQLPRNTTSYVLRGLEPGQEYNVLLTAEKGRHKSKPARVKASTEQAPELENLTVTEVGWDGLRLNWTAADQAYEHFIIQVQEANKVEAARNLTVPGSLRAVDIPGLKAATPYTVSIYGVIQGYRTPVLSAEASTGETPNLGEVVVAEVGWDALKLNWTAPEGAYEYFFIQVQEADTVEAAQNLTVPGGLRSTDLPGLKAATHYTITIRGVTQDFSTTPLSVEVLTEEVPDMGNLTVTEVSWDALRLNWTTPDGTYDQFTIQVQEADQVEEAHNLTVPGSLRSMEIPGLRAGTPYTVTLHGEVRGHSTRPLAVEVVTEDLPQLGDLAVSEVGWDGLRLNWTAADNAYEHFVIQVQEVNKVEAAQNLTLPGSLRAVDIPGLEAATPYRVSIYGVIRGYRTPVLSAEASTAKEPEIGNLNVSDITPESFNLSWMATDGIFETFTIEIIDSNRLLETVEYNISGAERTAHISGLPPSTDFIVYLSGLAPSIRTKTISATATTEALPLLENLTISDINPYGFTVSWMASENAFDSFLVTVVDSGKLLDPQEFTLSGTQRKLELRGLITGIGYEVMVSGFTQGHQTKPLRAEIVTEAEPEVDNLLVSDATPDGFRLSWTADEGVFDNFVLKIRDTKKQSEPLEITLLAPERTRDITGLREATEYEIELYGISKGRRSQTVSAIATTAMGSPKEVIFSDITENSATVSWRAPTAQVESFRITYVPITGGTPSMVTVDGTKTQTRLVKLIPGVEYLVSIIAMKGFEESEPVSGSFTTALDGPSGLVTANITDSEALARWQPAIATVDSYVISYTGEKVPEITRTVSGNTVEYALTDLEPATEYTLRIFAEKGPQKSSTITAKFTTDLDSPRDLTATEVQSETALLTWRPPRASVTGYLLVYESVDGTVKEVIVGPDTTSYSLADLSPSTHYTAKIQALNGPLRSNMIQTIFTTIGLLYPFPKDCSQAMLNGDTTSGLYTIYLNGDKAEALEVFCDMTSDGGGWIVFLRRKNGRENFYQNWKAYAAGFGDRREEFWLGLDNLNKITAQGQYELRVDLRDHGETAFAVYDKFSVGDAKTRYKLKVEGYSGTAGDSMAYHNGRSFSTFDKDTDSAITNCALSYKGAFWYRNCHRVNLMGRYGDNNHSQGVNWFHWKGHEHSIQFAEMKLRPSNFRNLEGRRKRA

These are yes or no findings as the source states them, for the method shown. Binding seen in cells or lysates may run through a third protein. Some results given as binding are weak or reduced against the parent protein; the word gives no strength.

Common to all, as to experiment: co-IP; lysates of HRECs incubated 72 h with 10 ng/ml IL-13, lysis buffer without SDS (25 mM Tris-HCl, 150 mM NaCl, 1% Triton X-100); precipitated with anti-PN, anti-TNC or anti-FN antibodies (IgG as control) overnight at 4 °C and agarose beads; western blot with anti-PN, anti-TNC and anti-FN
The target in test [1] is fibronectin (human (endogenous in HRECs)) (UniProt P02751).
Test [2] addresses T1, periostin (human (endogenous in HRECs)) (UniProt Q15063).
T1 sequence: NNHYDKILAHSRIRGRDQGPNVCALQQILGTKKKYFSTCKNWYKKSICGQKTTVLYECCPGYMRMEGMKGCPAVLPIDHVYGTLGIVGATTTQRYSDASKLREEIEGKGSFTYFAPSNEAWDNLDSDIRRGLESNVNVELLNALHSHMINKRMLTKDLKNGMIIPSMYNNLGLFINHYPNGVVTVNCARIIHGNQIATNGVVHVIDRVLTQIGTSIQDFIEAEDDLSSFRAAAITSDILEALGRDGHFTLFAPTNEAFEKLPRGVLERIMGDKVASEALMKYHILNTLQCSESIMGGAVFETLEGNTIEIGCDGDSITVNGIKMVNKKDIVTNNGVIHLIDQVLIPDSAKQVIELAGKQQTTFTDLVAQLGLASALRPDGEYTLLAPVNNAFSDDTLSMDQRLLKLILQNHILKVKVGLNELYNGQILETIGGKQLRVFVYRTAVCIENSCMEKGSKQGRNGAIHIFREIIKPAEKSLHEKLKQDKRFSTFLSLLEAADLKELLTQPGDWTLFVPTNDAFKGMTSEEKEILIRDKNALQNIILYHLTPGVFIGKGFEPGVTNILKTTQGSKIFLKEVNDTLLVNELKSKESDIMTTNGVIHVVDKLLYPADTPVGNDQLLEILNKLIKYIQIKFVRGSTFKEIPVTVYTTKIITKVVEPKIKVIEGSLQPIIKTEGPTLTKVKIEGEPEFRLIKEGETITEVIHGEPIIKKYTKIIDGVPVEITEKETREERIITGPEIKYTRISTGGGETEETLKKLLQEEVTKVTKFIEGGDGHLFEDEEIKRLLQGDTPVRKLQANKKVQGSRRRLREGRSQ

Test [3] has as its target tenascin-C (human (endogenous in HRECs)) (UniProt P24821).

As to “tenascin-C (from UniProt P24821 23-2201)”, the binding entry in test [1] and in test [2] was “binds” throughout.

As to “fibronectin (from UniProt P02751 32-2477)”, the binding result in test [3] was “binds”.
